Two molecules from PMC6764944 can be followed below.

Protein sequences, listed by entry. Tags and fused reporters are not part of them.
UniProt P14713: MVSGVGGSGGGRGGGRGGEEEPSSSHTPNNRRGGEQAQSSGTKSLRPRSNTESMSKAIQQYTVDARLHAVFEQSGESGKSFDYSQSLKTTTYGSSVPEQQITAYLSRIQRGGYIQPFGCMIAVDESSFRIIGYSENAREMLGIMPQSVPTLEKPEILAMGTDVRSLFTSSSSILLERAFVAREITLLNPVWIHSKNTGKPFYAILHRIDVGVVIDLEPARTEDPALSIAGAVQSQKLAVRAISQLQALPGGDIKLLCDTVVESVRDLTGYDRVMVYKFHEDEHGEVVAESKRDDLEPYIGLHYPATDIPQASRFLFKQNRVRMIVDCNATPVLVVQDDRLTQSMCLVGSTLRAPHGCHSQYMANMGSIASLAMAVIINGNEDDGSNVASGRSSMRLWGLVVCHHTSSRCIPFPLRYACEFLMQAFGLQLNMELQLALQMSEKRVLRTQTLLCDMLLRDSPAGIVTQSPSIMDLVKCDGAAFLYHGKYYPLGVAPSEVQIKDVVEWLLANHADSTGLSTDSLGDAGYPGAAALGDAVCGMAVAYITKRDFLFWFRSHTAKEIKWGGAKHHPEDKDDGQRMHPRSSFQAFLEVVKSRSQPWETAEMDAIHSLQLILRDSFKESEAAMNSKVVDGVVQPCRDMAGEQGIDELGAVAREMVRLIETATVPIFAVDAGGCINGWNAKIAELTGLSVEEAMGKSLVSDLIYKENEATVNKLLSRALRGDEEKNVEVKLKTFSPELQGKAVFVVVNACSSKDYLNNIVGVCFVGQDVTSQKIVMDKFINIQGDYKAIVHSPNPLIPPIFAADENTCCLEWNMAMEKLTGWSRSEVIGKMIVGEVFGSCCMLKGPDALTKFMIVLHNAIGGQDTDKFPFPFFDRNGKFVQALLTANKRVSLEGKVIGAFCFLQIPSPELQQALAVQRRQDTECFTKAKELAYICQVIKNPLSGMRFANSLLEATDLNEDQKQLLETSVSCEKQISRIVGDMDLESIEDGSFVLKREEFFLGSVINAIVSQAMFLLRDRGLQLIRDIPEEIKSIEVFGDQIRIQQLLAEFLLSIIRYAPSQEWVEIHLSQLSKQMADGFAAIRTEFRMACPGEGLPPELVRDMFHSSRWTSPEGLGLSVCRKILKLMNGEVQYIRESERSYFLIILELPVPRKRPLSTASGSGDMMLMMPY

The target in this test is T1, PIF5-HA (PHYTOCHROME … FACTOR 5 with HA tag, expressed from 35S:PIF5-HA) (Arabidopsis) (UniProt Q84LH8).
T1 sequence: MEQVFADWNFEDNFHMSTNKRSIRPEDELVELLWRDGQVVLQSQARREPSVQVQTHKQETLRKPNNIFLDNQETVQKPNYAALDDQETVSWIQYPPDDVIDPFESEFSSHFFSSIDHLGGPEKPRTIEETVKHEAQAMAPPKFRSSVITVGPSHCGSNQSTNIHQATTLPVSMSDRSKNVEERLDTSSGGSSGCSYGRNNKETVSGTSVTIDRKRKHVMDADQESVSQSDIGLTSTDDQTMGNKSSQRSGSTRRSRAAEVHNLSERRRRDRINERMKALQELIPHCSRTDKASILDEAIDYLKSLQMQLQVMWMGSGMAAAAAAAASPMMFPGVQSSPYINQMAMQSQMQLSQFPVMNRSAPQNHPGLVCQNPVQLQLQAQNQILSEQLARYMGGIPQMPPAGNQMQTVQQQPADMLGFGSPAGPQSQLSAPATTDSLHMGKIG
As to the kind of experiment: co-IP; PIF5-HA precipitated with anti-HA magnetic beads (µMACS) from 4 mg total protein extract of 10-day-old light-grown seedlings (LerPIF5Ox, uvr8-1PIF5Ox) transferred at dawn to high R:FR ± UV-B for 1 h; 50 mM Tris-HCl pH 8, 150 mM NaCl, 0.5% Nonidet P-40, 0.05% sodium deoxycholate; 3 h in cold room; immunoblots of eluates. For orientation: In western blotting, separated proteins are transferred to a membrane and probed.

Results are given in words; binding and its absence hold for the method and conditions named. In cells and extracts the contact can be indirect. Some binding calls cover weakened binding; strength is not graded here. Tags and fused reporters may be left off the sequences shown.

For “Phytochrome B (PHYB) (from UniProt P14713 1-1172)”, the binding result is given as “binds”.

B1: UV … LOCUS 8 (UVR8) (protein, UniProt Q9FN03 1-440)
chain: MAEDMAADEVTAPPRKVLIISAGASHSVALLSGDIVCSWGRGEDGQLGHGDAEDRPSPTQLSALDGHQIVSVTCGADHTVAYSQSGMEVYSWGWGDFGRLGHGNSSDLFTPLPIKALHGIRIKQIACGDSHCLAVTMEGEVQSWGRNQNGQLGLGDTEDSLVPQKIQAFEGIRIKMVAAGAEHTAAVTEDGDLYGWGWGRYGNLGLGDRTDRLVPERVTSTGGEKMSMVACGWRHTISVSYSGALYTYGWSKYGQLGHGDLEDHLIPHKLEALSNSFISQISGGWRHTMALTSDGKLYGWGWNKFGQVGVGNNLDQCSPVQVRFPDDQKVVQVSCGWRHTLAVTERNNVFAWGRGTNGQLGIGESVDRNFPKIIEALSVDGASGQHIESSNIDPSSGKSWVSPAERYAVVPDETGLTDGSSKGNGGDISVPQTDVKRVRI
As for B1, the binding entry was “no binding”.
